Test results taken from the supplement of paper PMC10849652.
The other results are listed elsewhere or left out.

Sequences of proteins named here, by UniProt entry; tags and fusion partners are left off. A change or cut given only in a name is not applied to a line headed by its entry.
UniProt Q9Y294, whole entry, looked up: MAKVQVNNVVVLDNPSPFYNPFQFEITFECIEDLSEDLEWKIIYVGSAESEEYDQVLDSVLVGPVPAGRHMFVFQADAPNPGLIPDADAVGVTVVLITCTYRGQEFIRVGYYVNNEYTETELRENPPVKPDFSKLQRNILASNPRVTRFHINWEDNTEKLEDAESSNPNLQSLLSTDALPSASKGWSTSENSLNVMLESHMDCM
UniProt Q8NBU5: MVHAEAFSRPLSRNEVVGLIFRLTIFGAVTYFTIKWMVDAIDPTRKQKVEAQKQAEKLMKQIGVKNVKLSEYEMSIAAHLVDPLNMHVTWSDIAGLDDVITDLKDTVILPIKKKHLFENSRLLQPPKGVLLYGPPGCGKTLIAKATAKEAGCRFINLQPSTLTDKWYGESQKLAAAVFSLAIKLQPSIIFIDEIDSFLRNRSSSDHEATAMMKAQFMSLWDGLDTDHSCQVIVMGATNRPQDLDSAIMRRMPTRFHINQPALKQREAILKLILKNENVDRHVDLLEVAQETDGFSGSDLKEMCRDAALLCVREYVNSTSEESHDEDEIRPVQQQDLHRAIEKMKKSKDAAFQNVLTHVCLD
UniProt Q6Y288: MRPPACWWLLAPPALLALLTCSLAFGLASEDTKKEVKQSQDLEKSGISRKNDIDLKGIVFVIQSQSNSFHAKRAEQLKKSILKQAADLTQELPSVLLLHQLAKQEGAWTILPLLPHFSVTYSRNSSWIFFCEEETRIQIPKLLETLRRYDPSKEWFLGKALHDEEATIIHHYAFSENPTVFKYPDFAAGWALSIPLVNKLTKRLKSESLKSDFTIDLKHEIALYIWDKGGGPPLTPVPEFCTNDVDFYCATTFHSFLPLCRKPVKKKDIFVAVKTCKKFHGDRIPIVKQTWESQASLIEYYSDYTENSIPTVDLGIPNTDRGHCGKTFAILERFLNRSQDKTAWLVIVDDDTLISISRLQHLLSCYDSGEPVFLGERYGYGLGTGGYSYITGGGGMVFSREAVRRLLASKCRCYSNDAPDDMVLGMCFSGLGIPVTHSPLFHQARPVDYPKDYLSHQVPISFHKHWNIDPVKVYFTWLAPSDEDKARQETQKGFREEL
UniProt Q9NWL6: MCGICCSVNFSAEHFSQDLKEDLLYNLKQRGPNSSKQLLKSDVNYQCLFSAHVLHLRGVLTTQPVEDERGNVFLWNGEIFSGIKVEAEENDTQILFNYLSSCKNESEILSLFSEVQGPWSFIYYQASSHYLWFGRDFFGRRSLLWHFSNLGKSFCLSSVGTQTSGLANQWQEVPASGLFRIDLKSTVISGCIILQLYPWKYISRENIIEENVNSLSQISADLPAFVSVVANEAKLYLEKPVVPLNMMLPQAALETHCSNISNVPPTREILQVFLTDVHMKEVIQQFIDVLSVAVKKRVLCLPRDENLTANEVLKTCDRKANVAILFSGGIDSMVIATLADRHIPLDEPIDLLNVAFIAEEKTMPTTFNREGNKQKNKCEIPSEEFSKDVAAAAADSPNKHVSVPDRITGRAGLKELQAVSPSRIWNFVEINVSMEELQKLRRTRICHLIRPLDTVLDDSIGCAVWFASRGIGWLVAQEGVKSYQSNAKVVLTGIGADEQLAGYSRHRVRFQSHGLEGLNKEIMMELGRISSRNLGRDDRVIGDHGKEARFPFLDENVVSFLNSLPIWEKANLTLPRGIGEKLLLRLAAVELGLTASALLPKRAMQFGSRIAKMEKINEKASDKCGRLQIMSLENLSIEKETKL
UniProt Q99941: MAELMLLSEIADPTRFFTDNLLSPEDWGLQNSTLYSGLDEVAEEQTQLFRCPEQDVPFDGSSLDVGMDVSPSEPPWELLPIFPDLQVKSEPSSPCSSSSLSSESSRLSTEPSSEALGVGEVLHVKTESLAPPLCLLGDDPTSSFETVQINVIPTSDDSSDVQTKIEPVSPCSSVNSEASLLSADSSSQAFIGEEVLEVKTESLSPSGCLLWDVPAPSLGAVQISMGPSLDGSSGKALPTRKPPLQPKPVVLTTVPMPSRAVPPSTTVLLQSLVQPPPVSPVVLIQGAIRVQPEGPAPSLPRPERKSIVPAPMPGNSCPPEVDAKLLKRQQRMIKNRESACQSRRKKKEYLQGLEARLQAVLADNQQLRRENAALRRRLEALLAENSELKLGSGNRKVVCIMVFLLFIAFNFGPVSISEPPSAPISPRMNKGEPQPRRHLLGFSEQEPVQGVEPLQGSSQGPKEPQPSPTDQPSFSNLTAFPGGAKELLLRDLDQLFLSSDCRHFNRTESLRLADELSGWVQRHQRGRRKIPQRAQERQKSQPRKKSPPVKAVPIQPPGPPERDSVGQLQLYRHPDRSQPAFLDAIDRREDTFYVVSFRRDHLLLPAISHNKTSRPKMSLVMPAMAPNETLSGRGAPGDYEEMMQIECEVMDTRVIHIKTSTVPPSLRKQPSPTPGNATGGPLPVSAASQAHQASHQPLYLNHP
UniProt Q2TAZ0: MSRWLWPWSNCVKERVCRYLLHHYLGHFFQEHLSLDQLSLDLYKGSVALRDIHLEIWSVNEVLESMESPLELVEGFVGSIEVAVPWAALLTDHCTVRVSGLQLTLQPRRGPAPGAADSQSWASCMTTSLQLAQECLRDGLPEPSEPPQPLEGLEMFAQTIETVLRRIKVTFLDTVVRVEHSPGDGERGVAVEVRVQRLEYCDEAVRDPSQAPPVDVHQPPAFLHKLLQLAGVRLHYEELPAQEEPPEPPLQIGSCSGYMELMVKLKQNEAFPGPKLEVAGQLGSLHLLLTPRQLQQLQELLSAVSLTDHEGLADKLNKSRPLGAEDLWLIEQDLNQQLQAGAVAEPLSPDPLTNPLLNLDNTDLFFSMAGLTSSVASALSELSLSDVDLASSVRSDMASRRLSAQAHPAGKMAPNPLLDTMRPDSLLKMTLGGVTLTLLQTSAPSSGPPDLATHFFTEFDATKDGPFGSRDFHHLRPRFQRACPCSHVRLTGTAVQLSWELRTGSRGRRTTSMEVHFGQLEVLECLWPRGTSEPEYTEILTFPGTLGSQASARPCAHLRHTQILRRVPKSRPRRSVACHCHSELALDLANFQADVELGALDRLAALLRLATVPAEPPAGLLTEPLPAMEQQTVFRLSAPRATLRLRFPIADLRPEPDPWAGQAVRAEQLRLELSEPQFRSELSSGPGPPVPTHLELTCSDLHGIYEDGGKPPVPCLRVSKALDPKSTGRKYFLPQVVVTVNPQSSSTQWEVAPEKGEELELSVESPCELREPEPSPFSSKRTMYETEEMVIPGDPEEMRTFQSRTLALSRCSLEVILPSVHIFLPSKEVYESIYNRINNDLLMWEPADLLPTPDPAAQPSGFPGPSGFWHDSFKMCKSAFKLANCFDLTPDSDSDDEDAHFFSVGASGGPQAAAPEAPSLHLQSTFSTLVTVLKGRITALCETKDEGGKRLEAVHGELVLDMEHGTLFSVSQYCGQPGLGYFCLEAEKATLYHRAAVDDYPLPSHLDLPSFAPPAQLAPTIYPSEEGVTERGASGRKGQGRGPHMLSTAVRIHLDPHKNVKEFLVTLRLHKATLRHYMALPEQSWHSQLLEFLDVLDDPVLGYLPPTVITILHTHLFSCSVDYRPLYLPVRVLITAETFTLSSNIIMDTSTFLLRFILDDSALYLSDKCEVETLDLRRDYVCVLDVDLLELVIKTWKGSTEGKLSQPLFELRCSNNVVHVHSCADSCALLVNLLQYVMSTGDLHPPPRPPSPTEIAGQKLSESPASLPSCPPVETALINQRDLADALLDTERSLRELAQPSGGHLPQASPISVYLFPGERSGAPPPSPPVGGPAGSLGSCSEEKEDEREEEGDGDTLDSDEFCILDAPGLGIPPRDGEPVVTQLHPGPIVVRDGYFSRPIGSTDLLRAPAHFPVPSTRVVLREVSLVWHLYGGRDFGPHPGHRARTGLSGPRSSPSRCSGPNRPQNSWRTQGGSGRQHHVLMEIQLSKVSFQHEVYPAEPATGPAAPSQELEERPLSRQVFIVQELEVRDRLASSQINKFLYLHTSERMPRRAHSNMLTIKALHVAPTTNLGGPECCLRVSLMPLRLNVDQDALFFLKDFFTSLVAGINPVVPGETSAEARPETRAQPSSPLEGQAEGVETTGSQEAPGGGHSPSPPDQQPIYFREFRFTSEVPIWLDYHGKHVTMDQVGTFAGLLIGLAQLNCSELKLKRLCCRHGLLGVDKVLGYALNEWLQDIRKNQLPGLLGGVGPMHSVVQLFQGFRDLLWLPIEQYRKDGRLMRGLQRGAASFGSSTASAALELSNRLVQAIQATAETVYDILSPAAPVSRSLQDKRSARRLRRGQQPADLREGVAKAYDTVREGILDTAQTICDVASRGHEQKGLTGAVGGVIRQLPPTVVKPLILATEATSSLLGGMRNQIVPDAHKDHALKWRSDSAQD
UniProt Q96NS5: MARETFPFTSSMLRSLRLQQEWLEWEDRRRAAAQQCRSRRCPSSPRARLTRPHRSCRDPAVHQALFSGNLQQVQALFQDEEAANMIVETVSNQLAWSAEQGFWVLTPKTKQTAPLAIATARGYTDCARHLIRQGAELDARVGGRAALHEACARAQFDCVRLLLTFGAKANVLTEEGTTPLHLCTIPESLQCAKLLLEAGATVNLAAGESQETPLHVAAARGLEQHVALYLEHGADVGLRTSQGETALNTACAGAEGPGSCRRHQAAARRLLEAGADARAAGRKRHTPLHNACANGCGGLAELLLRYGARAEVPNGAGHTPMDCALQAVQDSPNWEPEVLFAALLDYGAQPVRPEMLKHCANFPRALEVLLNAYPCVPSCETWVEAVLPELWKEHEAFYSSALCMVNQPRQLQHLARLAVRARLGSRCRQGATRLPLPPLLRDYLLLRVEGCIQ
UniProt Q67FW5: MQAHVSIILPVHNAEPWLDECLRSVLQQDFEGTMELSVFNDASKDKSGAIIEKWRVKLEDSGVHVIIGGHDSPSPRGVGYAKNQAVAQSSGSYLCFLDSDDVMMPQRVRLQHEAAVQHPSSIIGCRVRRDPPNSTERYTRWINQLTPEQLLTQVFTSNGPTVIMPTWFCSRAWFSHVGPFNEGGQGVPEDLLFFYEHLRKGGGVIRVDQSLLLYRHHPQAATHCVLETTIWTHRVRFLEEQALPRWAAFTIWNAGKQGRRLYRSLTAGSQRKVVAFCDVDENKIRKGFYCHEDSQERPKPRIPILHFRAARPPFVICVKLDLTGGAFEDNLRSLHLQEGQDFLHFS
UniProt Q76L83: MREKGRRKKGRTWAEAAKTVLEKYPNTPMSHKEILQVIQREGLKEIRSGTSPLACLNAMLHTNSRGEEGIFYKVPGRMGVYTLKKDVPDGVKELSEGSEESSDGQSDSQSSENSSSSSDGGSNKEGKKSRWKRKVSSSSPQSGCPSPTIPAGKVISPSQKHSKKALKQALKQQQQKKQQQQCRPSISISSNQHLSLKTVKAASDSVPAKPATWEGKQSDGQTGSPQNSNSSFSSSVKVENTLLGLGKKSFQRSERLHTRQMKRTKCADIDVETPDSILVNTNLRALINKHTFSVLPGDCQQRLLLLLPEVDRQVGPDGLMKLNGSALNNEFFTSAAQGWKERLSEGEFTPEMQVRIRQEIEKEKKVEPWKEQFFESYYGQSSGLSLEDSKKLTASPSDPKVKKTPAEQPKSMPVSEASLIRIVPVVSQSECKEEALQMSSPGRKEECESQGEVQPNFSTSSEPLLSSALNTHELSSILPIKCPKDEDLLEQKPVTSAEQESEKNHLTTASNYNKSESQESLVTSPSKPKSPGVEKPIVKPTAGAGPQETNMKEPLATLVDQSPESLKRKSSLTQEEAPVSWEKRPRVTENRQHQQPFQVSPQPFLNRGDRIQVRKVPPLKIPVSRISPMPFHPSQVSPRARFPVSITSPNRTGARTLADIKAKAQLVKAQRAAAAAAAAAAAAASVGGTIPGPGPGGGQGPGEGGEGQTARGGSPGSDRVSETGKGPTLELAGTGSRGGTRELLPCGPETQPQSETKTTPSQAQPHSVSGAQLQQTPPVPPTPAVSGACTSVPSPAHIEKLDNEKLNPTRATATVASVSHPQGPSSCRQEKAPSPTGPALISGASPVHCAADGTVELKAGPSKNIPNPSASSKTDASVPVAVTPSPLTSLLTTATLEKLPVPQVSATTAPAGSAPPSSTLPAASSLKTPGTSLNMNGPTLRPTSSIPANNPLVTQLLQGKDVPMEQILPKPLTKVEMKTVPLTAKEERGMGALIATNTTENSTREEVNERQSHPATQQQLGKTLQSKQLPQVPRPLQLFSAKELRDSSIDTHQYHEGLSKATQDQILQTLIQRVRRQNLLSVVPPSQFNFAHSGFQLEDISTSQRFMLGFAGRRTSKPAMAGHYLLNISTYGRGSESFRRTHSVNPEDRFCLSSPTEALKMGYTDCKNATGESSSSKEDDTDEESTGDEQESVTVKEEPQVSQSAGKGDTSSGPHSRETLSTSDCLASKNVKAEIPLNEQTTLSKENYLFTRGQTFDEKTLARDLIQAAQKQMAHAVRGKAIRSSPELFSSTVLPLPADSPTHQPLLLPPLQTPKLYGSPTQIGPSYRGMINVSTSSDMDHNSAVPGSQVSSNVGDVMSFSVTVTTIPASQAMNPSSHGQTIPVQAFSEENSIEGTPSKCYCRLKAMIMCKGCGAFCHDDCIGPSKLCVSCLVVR

What was measured:
Assay in all cases: log2 fold change, soluble protein after heating vs DMSO (PISA); higher = thermal stabilisation; K562 lysate, 10 uM; active = over 0.2 and 3.5 SD of the protein, either way, in both replicates (recomputed)
[1] = compound: NCC(=O)Nc1ccc(-n2nc(C(F)(F)F)cc2-c2ccc3c(ccc4ccccc43)c2)cc1
In short: (§1)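 To prepare the extract, K562 pellets were dounce-homogenised in PBS pH 7.4 with 1 mM MgCl2, giving crude material at 1 mg/mL protein. This was treated with 10 μM compound for 30 min, then heated in aliquots for 3 min over 48°C-58°C before pooling and addition of NP-40 to 0.5% at 4°C. Centrifugation at 21,000xg for 90 min left soluble protein in the supernatant, which TMTpro 16plex LC-MS/MS quantified with equalised channel sums. Results are log-two fold changes in thermal stability compared with solvent controls, from duplicates.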

[2] = compound: O=C(CCCCCCC(=O)Nc1ccccc1)NO [vorinostat]
In short: as §1

[3] = compound: O=C(O)c1ccc2c(c1)nc(Nc1cccc(Cl)c1)c1ccncc12 [silmitasertib]
In short: as §1

[4] = compound: O=C1NC(=O)C(c2cnc3ccccn23)=C1c1cn2c3c(cc(F)cc13)CN(C(=O)N1CCCCC1)CC2
In short: as §1

[5] = compound: c1cn2cc(-c3ccc4cn[nH]c4c3)nc(Nc3ccc(N4CCOCC4)cc3)c2n1 [entospletinib]
In short: as §1

Measured: log2 fold change

ASB6 (UniProt Q9NWX5)
inactive: [1] 0.116 | [2] -0.005 | [3] -0.057 | [4] -0.019 | [5] 0.074

B2M (UniProt P61769)
inactive: [1] -0.051 | [2] 0.181 | [3] -0.032 | [4] 0.016 | [5] 0.054

ATP13A3 (UniProt Q9H7F0)
inactive: [1] -0.082 | [2] 0 | [3] 0.056 | [4] -0.004 | [5] 0.043

ATP13A2 (UniProt Q9NQ11)
inactive: [1] -0.017 | [2] 0.141 | [3] 0.005 | [4] 0.007 | [5] -0.014

ASF1A (UniProt Q9Y294)
inactive: [1] -0.006 | [2] 0.04 | [3] 0.022 | [4] -0.011 | [5] 0.002

ATAD3A (UniProt Q9NVI7)
inactive: [1] -0.054 | [2] 0.086 | [3] -0.038 | [4] 0.001 | [5] 0

ATAD1 (UniProt Q8NBU5)
active: [2] -0.617
inactive: [1] -0.047 | [3] 0.021 | [4] 0.002 | [5] 0.008

ATG2B (UniProt Q96BY7)
inactive: [1] 0.016 | [2] 0.032 | [3] 0.009 | [4] 0.022 | [5] 0.008

ATP5MG (UniProt O75964)
inactive: [1] -0.007 | [2] 0.107 | [3] 0.016 | [4] 0.008 | [5] 0.029

ATG14 (UniProt Q6ZNE5)
inactive: [1] 0.02 | [2] 0.01 | [3] 0.121 | [5] -0.129

B3GLCT (UniProt Q6Y288)
inactive: [1] -0.041 | [2] 0.059 | [3] 0.002 | [4] -0.011 | [5] -0.012

ATXN3 isoform 1 (UniProt P54252)
inactive: [1] 0.008 | [2] 0.05 | [3] -0.03 | [4] -0.024 | [5] -0.041

ASNSD1 (UniProt Q9NWL6)
inactive: [2] -0.453 | [3] -0.057 | [5] -0.067

ATF6B (UniProt Q99941)
inactive: [4] -0.054

ASPRV1 (UniProt Q53RT3)
inactive: [2] 0.294 | [3] -0.31

ATF1 (UniProt P18846)
inactive: [2] 0.076 | [3] 0.023 | [4] -0.085 | [5] -0.141

ATG2A (UniProt Q2TAZ0)
inactive: [2] -0.034 | [3] -0.324

ATP2C1 isoform 3 (UniProt P98194)
inactive: [2] 0.099 | [3] 0.103

ASB16 (UniProt Q96NS5)
inactive: [4] 0.314

ASB9 (UniProt Q96DX5)
inactive: [2] 0.103 | [3] -0.16

Quoted at random: three entries already listed
ASB6 (UniProt Q9NWX5)
inactive: [1] 0.116 | [2] -0.005 | [3] -0.057 | [4] -0.019 | [5] 0.074

ATP2C1 isoform 3 (UniProt P98194)
inactive: [2] 0.099 | [3] 0.103

ATXN3 isoform 1 (UniProt P54252)
inactive: [1] 0.008 | [2] 0.05 | [3] -0.03 | [4] -0.024 | [5] -0.041

(further entries)

ATP6V0A1 (UniProt Q93050)
inactive: [2] 0.081 | [3] 0.113 | [4] 0.07

ATXN1L (UniProt P0C7T5)
inactive: [1] 0.061 | [4] 0.022 | [5] -0.059

ASB3 isoform 3 (UniProt Q9Y575)
inactive: [1] 0.075 | [5] -0.026

B3GALNT2 (UniProt Q8NCR0)
inactive: [4] -0.337

B3GNTL1 (UniProt Q67FW5)
inactive: [4] 0.019 | [5] -0.065

ATP5F1B (UniProt H0YI37)
inactive: [2] 0.509 | [3] -0.082 | [4] 0.917

ASXL2 (UniProt Q76L83)
inactive: [2] -0.104 | [3] -0.016 | [4] 0.057

ATP5F1A (UniProt K7ENJ4)
inactive: [2] -0.43 | [3] -0.037

B3GALT6 (UniProt Q96L58)
inactive: [2] 0.218 | [3] -0.029 | [4] 0.071

ASXL1 (UniProt Q8IXJ9)
inactive: [2] 0.03 | [3] 0.001 | [4] 0.002 | [5] -0.014

ASS1 (UniProt P00966)
inactive: [2] -0.193 | [3] 0.034 | [4] 0.035 | [5] -0.058

ATP11C, A0A067XG54
inactive: [2] 0.246 | [3] 0 | [4] -0.001
